Measurements taken from publication PMC6776436.
These are yes or no findings as the source states them, for the method shown. In cells and extracts the contact can be indirect. Some binding calls cover weakened binding; strength is not graded here. For some assays here: Tags and fused reporters may be left off the sequences shown.

The chains behind the UniProt entries cited, without tags or fusion partners.
UniProt Q9FIJ0: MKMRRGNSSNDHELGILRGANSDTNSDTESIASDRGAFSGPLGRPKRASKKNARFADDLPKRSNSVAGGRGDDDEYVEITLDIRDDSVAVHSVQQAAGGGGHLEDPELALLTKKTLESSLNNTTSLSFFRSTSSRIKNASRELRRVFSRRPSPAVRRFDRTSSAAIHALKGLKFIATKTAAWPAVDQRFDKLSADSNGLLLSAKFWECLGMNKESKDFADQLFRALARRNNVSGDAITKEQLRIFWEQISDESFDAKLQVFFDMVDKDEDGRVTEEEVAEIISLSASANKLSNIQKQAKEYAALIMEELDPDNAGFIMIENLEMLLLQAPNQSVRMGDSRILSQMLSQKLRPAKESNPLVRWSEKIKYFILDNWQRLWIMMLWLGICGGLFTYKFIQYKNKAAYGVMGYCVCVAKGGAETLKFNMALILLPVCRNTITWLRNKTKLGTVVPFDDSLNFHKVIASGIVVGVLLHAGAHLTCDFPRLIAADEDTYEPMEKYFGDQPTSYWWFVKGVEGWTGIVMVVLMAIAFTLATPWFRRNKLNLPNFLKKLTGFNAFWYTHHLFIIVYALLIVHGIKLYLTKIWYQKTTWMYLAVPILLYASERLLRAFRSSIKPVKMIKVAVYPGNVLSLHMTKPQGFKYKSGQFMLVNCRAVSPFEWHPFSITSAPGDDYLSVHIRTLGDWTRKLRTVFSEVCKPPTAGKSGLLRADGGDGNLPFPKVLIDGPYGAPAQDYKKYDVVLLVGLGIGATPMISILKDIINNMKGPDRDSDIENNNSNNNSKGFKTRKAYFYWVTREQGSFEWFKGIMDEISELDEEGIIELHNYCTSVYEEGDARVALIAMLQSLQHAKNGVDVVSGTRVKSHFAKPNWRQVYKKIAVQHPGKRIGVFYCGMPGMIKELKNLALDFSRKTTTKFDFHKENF

Columns and labels:
[1] = target: T1, SLAH3-YFPn (Arabidopsis thaliana) (UniProt Q9FLV9); experiment: split reporter; split-YFP constructs transiently co-expressed in N. benthamiana leaves by agro-infiltration; leaves collected 2 d after infiltration; confocal microscopy
T1 sequence: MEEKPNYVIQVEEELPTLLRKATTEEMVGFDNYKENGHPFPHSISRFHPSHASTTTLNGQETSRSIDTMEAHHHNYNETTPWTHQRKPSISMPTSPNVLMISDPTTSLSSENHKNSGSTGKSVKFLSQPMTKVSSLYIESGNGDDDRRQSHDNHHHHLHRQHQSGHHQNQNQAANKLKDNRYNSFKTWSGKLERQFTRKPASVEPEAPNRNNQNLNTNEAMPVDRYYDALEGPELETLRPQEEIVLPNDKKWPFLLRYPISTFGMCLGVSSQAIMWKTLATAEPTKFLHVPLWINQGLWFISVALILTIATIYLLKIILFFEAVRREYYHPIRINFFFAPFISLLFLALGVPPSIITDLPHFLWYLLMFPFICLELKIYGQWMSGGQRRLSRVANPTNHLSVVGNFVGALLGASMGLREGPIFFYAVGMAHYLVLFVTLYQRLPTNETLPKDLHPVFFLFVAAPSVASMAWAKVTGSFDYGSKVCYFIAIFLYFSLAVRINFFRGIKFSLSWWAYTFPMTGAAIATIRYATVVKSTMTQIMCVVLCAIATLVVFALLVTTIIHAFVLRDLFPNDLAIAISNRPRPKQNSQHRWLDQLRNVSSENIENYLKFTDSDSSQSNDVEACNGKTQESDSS

[2] = target: YFPn-RBOHD (Arabidopsis thaliana) (UniProt Q9FIJ0); experiment: as above
[3] = target: T2, LYK5-YFPn (Arabidopsis thaliana) (UniProt O22808); experiment: as above
T2 sequence: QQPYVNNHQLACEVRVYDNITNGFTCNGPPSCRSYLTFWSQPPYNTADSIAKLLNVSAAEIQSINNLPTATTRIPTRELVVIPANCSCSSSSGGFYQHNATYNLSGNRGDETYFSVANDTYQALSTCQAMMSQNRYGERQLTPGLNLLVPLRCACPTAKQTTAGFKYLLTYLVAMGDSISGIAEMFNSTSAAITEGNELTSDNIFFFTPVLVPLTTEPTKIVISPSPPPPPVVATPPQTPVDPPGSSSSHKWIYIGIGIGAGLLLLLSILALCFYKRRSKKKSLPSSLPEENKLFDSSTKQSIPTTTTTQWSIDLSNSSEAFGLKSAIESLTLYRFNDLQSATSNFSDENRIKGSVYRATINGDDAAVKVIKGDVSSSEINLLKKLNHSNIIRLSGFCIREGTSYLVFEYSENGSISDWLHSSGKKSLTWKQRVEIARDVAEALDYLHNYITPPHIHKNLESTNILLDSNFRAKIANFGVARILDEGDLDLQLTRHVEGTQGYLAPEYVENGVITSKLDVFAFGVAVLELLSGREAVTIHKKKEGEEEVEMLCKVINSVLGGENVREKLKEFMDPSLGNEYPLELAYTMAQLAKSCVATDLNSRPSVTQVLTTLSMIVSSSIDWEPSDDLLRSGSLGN

[4] = target: T3, SLAH3-FLAG (Arabidopsis thaliana) (UniProt Q9FLV9); experiment: co-IP; SLAH3-FLAG precipitated on FLAG beads (4°C, 2 hr) from extract of infiltrated N. benthamiana leaves; 50 mM Tris-HCl pH 7.5, 150 mM NaCl, 10% glycerol, 0.1% Triton X-100, 0.2% Nonidet P-40; with or without chitin stimulation; blots with anti-FLAG and anti-T7
T3 sequence: T1 sequence

B1: PBL27-YFPc (enzyme, UniProt Q1PDV6 1-513)
chain: MSGCLPCFGSSAKDAASKDSVKKELSAKDGSVTQSHHISLDKSKSRRGPEQKKELTAPKEGPTAHIAAQTFTFRELAAATKNFRPECLLGEGGFGRVYKGRLETTGQIVAVKQLDRNGLQGNREFLVEVLMLSLLHHPNLVNLIGYCADGDQRLLVYEYMPLGSLEDHLHDLPPDKEPLDWSTRMTIAAGAAKGLEYLHDKANPPVIYRDLKSSNILLGDGYHPKLSDFGLAKLGPVGDKTHVSTRVMGTYGYCAPEYAMTGQLTLKSDVYSFGVVFLELITGRKAIDNARAPGEHNLVAWARPLFKDRRKFPKMADPSLQGRYPMRGLYQALAVAAMCLQEQAATRPLIGDVVTALTYLASQTFDPNAPSGQNSRSGSGPPFIRTRDDRRSLGDGSSLDSPAETRSRLGSPATHKNSPDYRRRDMVREVNAGSEGGSETGGGSGRKWGLSDLEGQESQRGSPASVGRSSRGTPRNRDLDRERAVAEAKVWGENWRERKRATNGPGSFDSTND
[1]
  binding: binds
[2]
  binding: no binding

B2: CERK1^D441V-YFPc (receptor, UniProt A8R7E6 24-617)
chain: KCRTSCPLALASYYLENGTTLSVINQNLNSSIAPYDQINFDPILRYNSNIKDKDRIQMGSRVLVPFPCECQPGDFLGHNFSYSVRQEDTYERVAISNYANLTTMESLQARNPFPATNIPLSATLNVLVNCSCGDESVSKDFGLFVTYPLRPEDSLSSIARSSGVSADILQRYNPGVNFNSGNGIVYVPGRDPNGAFPPFKSSKQDGVGAGVIAGIVIGVIVALLLILFIVYYAYRKNKSKGDSFSSSIPLSTKADHASSTSLQSGGLGGAGVSPGIAAISVDKSVEFSLEELAKATDNFNLSFKIGQGGFGAVYYAELRGEKAAIKKMDMEASKQFLAELKVLTRVHHVNLVRLIGYCVEGSLFLVYEYVENGNLGQHLHGSGREPLPWTKRVQIALDSARGLEYIHEHTVPVYVHRVIKSANILIDQKFRAKVADFGLTKLTEVGGSATRGAMGTFGYMAPETVYGEVSAKVDVYAFGVVLYELISAKGAVVKMTEAVGEFRGLVGVFEESFKETDKEEALRKIIDPRLGDSYPFDSVYKMAELGKACTQENAQLRPSMRYIVVALSTLFSSTGNWDVGNFQNEDLVSLMSGR
[1]
  binding: no binding
[3]
  binding: binds

B3: PBL27-T7 (enzyme, UniProt Q1PDV6 1-513)
chain: B1 chain
[4]
  binding: binds
